Results as given in publication PMC6980832, “Crystal structures of Triosephosphate Isomerases from Taenia solium and Schistosoma mansoni provide insights for vaccine rationale and drug design against helminth parasites” (PLoS Neglected Tropical Diseases, 2020).
These are yes or no findings as the source states them, for the method shown. Some entries that bind do so weakly or less than the wild type.

The chains behind the UniProt entries cited, without tags or fusion partners. Where a name states a change or a piece, a line headed by the entry shows the natural chain unless it says otherwise.
UniProt P48501: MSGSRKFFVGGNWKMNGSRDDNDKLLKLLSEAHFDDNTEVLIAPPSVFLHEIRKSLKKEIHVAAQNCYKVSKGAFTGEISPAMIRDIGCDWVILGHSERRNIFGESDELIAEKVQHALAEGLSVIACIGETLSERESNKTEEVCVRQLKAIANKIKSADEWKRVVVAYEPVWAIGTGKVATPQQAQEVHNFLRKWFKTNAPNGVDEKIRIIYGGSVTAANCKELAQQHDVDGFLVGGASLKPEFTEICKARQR

Target: Triosephosphate isomerase from Schistosoma mansoni (Schistosoma mansoni) (UniProt P48501)
Assay: crystal structure; sitting drop; protein 20 mg/ml incubated with 10 mM 2-phosphoglyceric acid in storage buffer; homodimer seen in the crystal; both purified

binding: binds
Substance: Triosephosphate isomerase from Schistosoma mansoni (from UniProt P48501 1-253) (enzyme)
